In patent US20160177397, “APTAMER FOR DETECTION OF ALPHA-METHYLACYL-COA RACEMASE AND DIAGNOSTIC KIT THEREOF” (NATIONAL TAIWAN UNIVERSITY, published 2016):
Results from cells or extracts need not show a direct contact. Tags and fusion partners may be left off the protein sequences shown.

How the values were obtained:
[1] = target: T1, AMACR (endogenous, in prostate cancer cell lysate) (Homo sapiens) (UniProt Q9UHK6); experiment: binding assay; settings: ELAA on coated cell lysates; 22Rv1 responsive; LNCaP signal higher than PC3; protein in an extract; protein details: 22Rv1, LNCaP and PC3 cell lysates; label: biotin; single-stranded DNA
T1 sequence (looked up, limits assumed): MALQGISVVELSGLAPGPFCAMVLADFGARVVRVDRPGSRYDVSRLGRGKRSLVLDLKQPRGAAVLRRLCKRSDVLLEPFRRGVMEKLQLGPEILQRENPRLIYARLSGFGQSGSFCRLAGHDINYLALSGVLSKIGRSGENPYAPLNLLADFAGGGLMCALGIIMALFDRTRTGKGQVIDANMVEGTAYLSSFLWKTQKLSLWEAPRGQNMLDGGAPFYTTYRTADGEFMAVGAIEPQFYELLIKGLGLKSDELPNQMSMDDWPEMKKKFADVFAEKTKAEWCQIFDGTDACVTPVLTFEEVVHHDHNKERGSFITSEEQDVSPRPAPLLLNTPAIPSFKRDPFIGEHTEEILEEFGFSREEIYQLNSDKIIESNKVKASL

[2] = target: T2, AMACR (endogenous, in fixed 22Rv1 cells) (Homo sapiens) (UniProt Q9UHK6); experiment: binding assay; settings: confocal staining of fixed 22Rv1 cells, cytoplasmic signal, 1 uM aptamer; protein in cells; label: FAM; single-stranded DNA; variant of AMC51
T2 sequence (looked up, limits assumed): T1 sequence (looked up, limits assumed)

“CCCTACGGCGCTAACCCATGCTACGAATTCGTTGTTAAACAATAGGCCACCGTGCTACAA [AMC51]”: binds [1].

“CCCTACGGCGCTAACCCATGCTACGAATTCGTTGTTAAACAATAGGCCACCGTGCTACAA [FAM-AMC51]”: binds [2].
